Assay results from paper PMC3479139, “Diverse Small Molecule Inhibitors of Human Apurinic/Apyrimidinic Endonuclease APE1 Identified from a Screen of a Large Public Collection” (PLoS ONE, 2012).
The match of structure and compound is tentative.

Chains of the proteins cited; added tags and fusions are not shown.
UniProt P27695, whole entry: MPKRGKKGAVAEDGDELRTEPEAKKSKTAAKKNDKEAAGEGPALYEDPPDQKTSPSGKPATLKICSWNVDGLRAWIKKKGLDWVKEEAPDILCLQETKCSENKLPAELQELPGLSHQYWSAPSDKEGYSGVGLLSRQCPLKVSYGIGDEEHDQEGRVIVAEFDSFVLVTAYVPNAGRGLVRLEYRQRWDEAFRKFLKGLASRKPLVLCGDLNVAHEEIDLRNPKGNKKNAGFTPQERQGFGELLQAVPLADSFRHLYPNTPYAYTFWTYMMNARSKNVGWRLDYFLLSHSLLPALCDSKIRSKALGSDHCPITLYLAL

Assays:
[1] = molecular target: T1, APE1 (Homo sapiens, UniProt P27695); assay: Fluorogenic kinetic qHTS APE1 incision assay (primary screen and retest of cherrypicked samples); assay type: biochemical;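 note: purified APE1 cleaving a fluorophore/dark-quencher labelled 17-mer duplex DNA bearing a tetrahydrofuran AP site, fluorescence rise followed kinetically over the first 2 min, inhibition normalized to controls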
[2] = molecular target: double-stranded 17-mer DNA fragment; assay: ThO (Thiazole Orange) DNA displacement assay; details: read-out: ThO-DNA binding IC50;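 note: miniaturized displacement of the intercalating dye from unlabeled duplex DNA, used to flag nonspecific DNA binders, chiefly intercalators, groove binders may be missed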
[3] = molecular target: T1, APE1; assay: Fluorescence polarization (FP) displacement assay of APE1 binding to AP-DNA probe; details: read-out: FP IC50;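 note: TAMRA 5′-labeled duplex DNA with THF abasic site (5 nM) and APE1 (20 nM), Mg2+-free buffer, 15 min at room temperature, inhibition seen as lowered polarization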
[4] = molecular target: E. coli Endo IV (Escherichia coli, UniProt P0A6C1); assay: E. coli Endo IV profiling counterscreen; assay type: biochemical; details: read-out: EndoIV IC50;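 note: selectivity counterscreen of candidate APE1 inhibitors against the bacterial endonuclease Endo IV, run in the same assay format as the primary APE1 high-throughput screen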

Work on `[O][C@H]1[C@@H](O)[C@@H](CO)O[C@@H](O[C@@H]2[C@@H]3OC[C@H]2O[C@H](O[C@@H]2[C@@H](O)[C@H](C[C@@H]4[C@@H]5OC[C@H]4O[CH][C@@H]5O)O[C@H](CO)[C@@H]2OS(=O)(=O)O)[C@@H]3OS(=O)(=O)O)[C@@H]1O` yielded an IC50 ([1]; read-out: APE1 Retest IC50, retest of cherrypicked sample) of 7.9 µM, an IC50 ([1]; read-out: APE1 qHTS IC50, initial quantitative high-throughput screen) of 10 µM and an IC50 [2] of over 57 µM. It also gave an IC50 [3] of over 57 µM and an IC50 [4] of over 57 µM.
